The values that follow are results of earlier work, collected in publication PMC8509428, “The Phenoxyalkyltriazine Antagonists for 5-HT6 Receptor with Promising Procognitive and Pharmacokinetic Properties In Vivo in Search for a Novel Therapeutic Approach to Dementia Diseases” (International Journal of Molecular Sciences, 2021).

This data set deals with human 5-HT6R. The settings on record: ± SD; read-out: Ki 5-HT6; cited from earlier work.

Take `Cc1cc2c(s1)Nc1ccccc1N=C2N1CCN(C)CC1` [Ref, olanzapine, reference compound]: the Ki – broadly, the dissociation constant of the complex between target and ligand, obtained from inhibition or displacement – was 7 ± 1 nM.
